Laboratory results published in the supplement of paper PMC12823440, “Inhibitors supercharge kinase turnover through native proteolytic circuits” (Nature, 2025).
The list shows a part of the results. Hit calls seldom repeat between salt and free forms of one compound.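 In K562 cells expressing nanoluciferase-fused kinases, luminescence was recorded at 4 h intervals between 2 and 18 h, normalized as percent of control with DMSO at 100% and a positive control at 0%. A significant (2 sigma) signal drop marks a time point as decreased. The authors' rule for a hit is not shown and takes in more than the number of time points.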

Sequences of proteins named here, by UniProt entry; tags and fusion partners are left off. A change or cut given only in a name is not applied to a line headed by its entry.
UniProt Q06187: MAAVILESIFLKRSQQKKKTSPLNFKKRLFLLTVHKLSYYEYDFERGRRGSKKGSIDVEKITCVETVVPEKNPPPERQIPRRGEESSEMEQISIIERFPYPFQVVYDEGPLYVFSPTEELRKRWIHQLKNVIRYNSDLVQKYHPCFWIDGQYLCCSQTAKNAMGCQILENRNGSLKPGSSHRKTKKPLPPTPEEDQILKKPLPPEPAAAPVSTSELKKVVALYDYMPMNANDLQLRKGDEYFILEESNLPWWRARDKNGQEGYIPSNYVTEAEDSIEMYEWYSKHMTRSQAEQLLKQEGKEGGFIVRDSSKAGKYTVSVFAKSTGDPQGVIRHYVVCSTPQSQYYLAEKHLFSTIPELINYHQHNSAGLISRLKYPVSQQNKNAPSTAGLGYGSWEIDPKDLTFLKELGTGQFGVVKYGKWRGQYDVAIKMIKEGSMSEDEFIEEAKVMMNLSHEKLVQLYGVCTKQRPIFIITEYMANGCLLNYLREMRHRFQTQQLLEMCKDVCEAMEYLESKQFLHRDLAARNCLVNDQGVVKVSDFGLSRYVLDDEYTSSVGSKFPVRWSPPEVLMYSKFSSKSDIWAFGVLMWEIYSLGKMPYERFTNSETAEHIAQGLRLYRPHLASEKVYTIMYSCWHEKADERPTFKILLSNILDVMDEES
UniProt Q13555: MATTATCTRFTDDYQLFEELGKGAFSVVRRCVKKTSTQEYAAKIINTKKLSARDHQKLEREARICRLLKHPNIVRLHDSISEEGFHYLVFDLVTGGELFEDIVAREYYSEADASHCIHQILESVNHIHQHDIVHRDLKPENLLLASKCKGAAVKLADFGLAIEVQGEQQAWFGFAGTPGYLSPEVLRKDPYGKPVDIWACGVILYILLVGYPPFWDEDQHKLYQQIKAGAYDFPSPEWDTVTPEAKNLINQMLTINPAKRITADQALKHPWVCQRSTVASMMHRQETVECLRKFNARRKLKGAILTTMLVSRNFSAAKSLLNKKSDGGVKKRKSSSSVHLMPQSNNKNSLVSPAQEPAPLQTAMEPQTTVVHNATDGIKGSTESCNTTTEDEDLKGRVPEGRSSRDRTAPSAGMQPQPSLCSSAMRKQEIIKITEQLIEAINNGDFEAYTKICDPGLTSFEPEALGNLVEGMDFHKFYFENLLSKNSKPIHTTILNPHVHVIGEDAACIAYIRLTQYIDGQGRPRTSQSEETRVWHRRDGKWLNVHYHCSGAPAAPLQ
UniProt Q15131: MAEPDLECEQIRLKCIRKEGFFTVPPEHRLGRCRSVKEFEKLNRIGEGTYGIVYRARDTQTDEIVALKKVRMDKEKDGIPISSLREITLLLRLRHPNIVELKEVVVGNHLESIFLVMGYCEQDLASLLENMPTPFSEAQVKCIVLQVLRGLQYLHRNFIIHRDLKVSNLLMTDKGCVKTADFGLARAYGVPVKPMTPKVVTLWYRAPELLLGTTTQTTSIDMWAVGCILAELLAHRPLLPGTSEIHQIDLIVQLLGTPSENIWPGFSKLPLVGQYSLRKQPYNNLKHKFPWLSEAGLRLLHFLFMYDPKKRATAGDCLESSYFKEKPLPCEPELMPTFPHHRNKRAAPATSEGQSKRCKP
UniProt Q00526: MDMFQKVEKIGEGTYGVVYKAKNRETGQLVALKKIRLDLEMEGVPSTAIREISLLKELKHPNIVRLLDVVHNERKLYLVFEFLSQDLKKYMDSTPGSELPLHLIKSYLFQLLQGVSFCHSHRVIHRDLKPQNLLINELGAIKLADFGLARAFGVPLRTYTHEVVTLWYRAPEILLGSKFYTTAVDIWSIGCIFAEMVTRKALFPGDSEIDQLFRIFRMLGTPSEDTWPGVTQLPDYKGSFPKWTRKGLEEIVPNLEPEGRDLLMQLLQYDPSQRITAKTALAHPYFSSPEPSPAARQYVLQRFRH
UniProt P11802: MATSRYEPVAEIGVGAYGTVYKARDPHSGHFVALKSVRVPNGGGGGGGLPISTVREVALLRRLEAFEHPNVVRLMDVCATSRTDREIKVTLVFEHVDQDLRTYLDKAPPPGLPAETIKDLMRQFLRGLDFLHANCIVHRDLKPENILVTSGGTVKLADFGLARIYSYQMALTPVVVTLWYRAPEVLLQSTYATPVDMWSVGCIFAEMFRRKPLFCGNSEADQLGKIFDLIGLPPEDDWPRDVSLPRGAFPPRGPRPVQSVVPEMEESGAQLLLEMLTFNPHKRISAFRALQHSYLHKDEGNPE
UniProt Q00535, whole entry, looked up: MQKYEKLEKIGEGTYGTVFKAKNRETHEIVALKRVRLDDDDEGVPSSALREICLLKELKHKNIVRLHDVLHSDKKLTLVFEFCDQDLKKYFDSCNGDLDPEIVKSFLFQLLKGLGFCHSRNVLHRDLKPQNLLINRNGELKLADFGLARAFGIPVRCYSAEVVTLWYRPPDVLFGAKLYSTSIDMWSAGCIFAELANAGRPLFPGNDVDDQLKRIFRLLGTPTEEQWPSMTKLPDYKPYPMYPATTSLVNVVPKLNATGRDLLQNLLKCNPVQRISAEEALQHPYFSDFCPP
UniProt P50613: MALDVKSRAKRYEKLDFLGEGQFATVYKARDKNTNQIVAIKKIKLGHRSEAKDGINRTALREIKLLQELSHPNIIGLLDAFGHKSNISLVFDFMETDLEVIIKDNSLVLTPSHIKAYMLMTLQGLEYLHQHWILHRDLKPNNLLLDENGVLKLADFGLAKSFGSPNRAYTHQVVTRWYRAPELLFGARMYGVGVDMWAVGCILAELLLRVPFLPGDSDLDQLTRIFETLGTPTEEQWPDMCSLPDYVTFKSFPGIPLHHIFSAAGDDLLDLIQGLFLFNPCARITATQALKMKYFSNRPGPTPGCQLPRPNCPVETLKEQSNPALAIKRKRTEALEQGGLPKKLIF
UniProt P50750, whole entry: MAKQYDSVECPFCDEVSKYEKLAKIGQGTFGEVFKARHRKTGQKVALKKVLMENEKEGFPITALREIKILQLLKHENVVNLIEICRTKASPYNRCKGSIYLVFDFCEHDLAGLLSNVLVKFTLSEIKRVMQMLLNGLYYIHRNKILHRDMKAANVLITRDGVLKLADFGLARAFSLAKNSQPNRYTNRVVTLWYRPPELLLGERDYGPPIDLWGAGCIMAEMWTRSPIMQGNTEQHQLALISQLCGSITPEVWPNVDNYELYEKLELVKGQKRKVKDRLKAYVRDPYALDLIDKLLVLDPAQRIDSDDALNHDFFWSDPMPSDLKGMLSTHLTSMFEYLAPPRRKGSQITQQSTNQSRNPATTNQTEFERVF
UniProt P07333, whole entry: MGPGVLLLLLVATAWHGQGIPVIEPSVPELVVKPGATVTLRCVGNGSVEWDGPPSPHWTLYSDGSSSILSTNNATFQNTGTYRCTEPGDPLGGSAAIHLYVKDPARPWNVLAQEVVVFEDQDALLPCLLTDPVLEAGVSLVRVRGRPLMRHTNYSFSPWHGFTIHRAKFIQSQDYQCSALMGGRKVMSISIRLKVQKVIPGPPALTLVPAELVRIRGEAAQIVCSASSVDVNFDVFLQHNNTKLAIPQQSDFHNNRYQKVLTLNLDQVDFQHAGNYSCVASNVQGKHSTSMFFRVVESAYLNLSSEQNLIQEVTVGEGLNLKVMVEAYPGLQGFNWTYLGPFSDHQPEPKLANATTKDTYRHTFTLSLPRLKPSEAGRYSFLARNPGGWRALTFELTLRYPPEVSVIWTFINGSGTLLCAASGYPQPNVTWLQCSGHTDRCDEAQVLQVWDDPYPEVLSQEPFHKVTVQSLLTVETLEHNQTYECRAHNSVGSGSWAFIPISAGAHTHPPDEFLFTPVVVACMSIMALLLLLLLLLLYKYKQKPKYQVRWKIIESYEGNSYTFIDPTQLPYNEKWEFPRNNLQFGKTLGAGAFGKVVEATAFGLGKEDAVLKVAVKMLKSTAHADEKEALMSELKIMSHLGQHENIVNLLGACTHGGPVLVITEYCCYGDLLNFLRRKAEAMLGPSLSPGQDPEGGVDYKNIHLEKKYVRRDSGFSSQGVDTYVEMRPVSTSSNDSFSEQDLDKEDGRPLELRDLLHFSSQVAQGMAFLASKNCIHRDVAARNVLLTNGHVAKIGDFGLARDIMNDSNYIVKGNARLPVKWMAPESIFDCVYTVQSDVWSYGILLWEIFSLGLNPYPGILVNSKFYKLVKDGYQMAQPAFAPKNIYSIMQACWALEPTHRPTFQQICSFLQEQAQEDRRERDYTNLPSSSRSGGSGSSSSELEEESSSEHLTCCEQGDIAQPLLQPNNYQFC
UniProt P41240: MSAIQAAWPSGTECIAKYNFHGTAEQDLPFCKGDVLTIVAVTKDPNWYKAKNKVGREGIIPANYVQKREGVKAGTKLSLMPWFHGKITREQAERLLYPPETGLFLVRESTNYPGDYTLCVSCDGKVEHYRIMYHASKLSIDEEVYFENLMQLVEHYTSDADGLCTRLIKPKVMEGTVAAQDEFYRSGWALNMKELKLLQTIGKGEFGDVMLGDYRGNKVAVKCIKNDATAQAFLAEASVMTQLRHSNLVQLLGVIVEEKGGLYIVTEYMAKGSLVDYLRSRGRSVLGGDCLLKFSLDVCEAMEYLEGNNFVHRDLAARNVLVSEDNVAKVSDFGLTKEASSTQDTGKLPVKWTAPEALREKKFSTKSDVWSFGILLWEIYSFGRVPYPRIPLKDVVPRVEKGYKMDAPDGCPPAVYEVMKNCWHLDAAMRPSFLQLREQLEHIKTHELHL
UniProt P48730: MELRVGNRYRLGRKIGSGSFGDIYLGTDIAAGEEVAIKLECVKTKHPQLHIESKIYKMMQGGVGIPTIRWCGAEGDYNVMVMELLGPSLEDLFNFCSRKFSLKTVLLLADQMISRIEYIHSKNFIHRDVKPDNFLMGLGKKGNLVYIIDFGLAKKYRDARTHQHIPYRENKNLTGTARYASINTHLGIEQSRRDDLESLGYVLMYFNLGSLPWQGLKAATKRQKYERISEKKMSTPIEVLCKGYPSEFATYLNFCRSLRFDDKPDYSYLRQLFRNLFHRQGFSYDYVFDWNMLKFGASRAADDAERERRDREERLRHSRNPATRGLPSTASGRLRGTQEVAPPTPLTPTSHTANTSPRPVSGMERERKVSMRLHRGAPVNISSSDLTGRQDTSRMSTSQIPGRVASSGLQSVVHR
UniProt Q08345: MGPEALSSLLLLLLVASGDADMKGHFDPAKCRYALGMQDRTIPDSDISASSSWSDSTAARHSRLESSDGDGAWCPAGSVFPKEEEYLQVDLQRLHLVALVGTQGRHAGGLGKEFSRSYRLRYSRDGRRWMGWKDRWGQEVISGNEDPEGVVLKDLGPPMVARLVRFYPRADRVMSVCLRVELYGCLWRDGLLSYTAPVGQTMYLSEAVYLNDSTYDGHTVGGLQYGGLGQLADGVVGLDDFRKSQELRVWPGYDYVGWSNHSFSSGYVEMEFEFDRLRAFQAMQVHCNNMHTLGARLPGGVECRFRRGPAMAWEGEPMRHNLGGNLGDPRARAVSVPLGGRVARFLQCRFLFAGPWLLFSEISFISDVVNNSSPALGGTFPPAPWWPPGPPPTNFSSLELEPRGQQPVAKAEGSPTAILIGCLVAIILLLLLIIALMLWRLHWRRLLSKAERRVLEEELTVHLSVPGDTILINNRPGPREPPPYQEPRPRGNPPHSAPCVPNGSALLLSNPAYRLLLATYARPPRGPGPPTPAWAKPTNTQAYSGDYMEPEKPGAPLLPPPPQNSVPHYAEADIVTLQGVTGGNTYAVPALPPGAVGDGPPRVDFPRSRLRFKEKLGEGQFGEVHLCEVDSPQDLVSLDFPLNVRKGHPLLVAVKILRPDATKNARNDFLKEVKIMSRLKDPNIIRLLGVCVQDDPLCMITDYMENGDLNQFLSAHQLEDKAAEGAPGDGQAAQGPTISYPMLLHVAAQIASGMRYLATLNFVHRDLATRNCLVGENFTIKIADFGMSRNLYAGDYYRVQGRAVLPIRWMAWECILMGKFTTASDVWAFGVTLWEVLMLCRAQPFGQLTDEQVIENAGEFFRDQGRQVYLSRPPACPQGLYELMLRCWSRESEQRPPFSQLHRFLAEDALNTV
UniProt Q9Y463, whole entry, looked up: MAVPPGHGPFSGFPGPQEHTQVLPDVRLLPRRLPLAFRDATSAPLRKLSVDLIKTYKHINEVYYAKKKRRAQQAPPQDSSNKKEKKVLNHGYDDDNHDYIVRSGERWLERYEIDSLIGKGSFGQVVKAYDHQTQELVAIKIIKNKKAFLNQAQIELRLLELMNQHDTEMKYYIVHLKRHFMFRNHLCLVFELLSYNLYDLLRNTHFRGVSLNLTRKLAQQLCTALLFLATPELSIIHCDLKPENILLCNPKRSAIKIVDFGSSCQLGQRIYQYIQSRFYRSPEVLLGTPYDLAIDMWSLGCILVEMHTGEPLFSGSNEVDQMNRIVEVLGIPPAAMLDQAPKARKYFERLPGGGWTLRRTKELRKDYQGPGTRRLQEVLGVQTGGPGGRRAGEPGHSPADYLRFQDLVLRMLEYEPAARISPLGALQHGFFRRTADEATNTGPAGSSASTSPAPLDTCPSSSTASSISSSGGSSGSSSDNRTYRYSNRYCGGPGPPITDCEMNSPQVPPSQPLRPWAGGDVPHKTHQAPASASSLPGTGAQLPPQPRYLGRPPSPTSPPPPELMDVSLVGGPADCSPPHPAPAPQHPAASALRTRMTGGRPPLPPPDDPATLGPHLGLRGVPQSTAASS

Columns and labels:
Test in all cases: kinase-Nluc reporter destabilization hit call (1 = scored as downregulated) (binary); higher = compound decreases kinase abundance
Conditions in all cases: K562; 2-18 h
BRAF_V600E = system: BRAF_V600E
BTK = BTK (UniProt Q06187)
CAMK2A = CAMK2A (UniProt Q9UQM7)
CAMK2G = CAMK2G (UniProt Q13555)
CDK10 = CDK10 (UniProt Q15131)
CDK2 = CDK2 (UniProt P24941)
CDK3 = CDK3 (UniProt Q00526)
CDK4 = CDK4 (UniProt P11802)
CDK5 = CDK5 (UniProt Q00535)
CDK6 = CDK6 (UniProt Q00534)
CDK7 = CDK7 (UniProt P50613)
CDK9 = CDK9 (UniProt P50750)
CHEK2 = CHEK2 (UniProt O96017)
CSF1R = CSF1R (UniProt P07333)
CSK = CSK (UniProt P41240)
CSNK1A1 = CSNK1A1 (UniProt P48729)
CSNK1D = CSNK1D (UniProt P48730)
DDR1 = DDR1 (UniProt Q08345)
DYRK1B = DYRK1B (UniProt Q9Y463)
DYRK2 = DYRK2 (UniProt Q92630)

SMILES	kinase-Nluc reporter destabilization hit call (BRAF_V600E)	kinase-Nluc reporter destabilization hit call (BTK)	kinase-Nluc reporter destabilization hit call (CAMK2A)	kinase-Nluc reporter destabilization hit call (CAMK2G)	kinase-Nluc reporter destabilization hit call (CDK10)	kinase-Nluc reporter destabilization hit call (CDK2)	kinase-Nluc reporter destabilization hit call (CDK3)	kinase-Nluc reporter destabilization hit call (CDK4)	kinase-Nluc reporter destabilization hit call (CDK5)	kinase-Nluc reporter destabilization hit call (CDK6)	kinase-Nluc reporter destabilization hit call (CDK7)	kinase-Nluc reporter destabilization hit call (CDK9)	kinase-Nluc reporter destabilization hit call (CHEK2)	kinase-Nluc reporter destabilization hit call (CSF1R)	kinase-Nluc reporter destabilization hit call (CSK)	kinase-Nluc reporter destabilization hit call (CSNK1A1)	kinase-Nluc reporter destabilization hit call (CSNK1D)	kinase-Nluc reporter destabilization hit call (DDR1)	kinase-Nluc reporter destabilization hit call (DYRK1B)	kinase-Nluc reporter destabilization hit call (DYRK2)
N#CC(c1ccnc(OCc2ccc(CN3CCOCC3)cc2)n1)c1nc2ccccc2s1 (stereo not given) [Bentamapimod] (2.5 µM)	inactive: 0	inactive: 0	inactive: 0	inactive: 0	inactive: 0	inactive: 0	inactive: 0	inactive: 0	inactive: 0	inactive: 0	inactive: 0	inactive: 0	inactive: 0	inactive: 0	inactive: 0	inactive: 0	inactive: 0	inactive: 0	inactive: 0	inactive: 0
O=C(NCc1cccc(O)c1)Nc1nc(-c2ccncc2)cs1 (10 µM)	inactive: 0	inactive: 0	inactive: 0	inactive: 0	inactive: 0	inactive: 0	inactive: 0	inactive: 0	inactive: 0	inactive: 0	inactive: 0	inactive: 0	inactive: 0	inactive: 0	inactive: 0	inactive: 0	inactive: 0	inactive: 0	inactive: 0	inactive: 0
CC(C)=CC(=O)O[C@H]1Cc2cc3ccc(=O)oc3cc2OC1(C)C [Decursin] (10 µM)	inactive: 0	inactive: 0	inactive: 0	inactive: 0	inactive: 0	inactive: 0	inactive: 0	inactive: 0	inactive: 0	inactive: 0	inactive: 0	inactive: 0	inactive: 0	inactive: 0	inactive: 0	inactive: 0	inactive: 0	inactive: 0	inactive: 0	inactive: 0
CN(C)S(=O)(=O)c1ccc2c(c1)/C(=C/c1cc3c([nH]1)CCCC3)C(=O)N2 (2.5 µM)	inactive: 0	inactive: 0	inactive: 0	inactive: 0	inactive: 0	inactive: 0	inactive: 0	inactive: 0	inactive: 0	inactive: 0	inactive: 0	inactive: 0	inactive: 0	inactive: 0	inactive: 0	inactive: 0	inactive: 0	active: 1	inactive: 0	inactive: 0
Cc1ccc(-c2csc3ncnc(SCCC(=O)O)c23)cc1 (10 µM)	inactive: 0	inactive: 0	inactive: 0	inactive: 0	inactive: 0	inactive: 0	inactive: 0	inactive: 0	inactive: 0	inactive: 0	inactive: 0	inactive: 0	inactive: 0	inactive: 0	inactive: 0	inactive: 0	inactive: 0	inactive: 0	inactive: 0	inactive: 0
N#Cc1ccnc(Nc2cc(C3CCN(C4COC4)CC3)cc(N3CCC(F)(F)C3)n2)c1 (2.5 µM)	inactive: 0	inactive: 0	inactive: 0	inactive: 0	inactive: 0	inactive: 0	inactive: 0	inactive: 0	inactive: 0	inactive: 0	inactive: 0	inactive: 0	inactive: 0	inactive: 0	inactive: 0	inactive: 0	inactive: 0	inactive: 0	inactive: 0	inactive: 0
Nc1cccc(-c2cc3c(Oc4cccc(O)c4)ncnc3[nH]2)c1 (10 µM)	inactive: 0	inactive: 0	inactive: 0	inactive: 0	inactive: 0	inactive: 0	inactive: 0	inactive: 0	inactive: 0	inactive: 0	inactive: 0	inactive: 0	inactive: 0	inactive: 0	inactive: 0	inactive: 0	inactive: 0	inactive: 0	inactive: 0	inactive: 0
O=C1NC(=O)C(c2cnc3ccccn23)=C1c1cn2c3c(cc(F)cc13)CNCC2 [GSK-3 inhibitor 1] (2.5 µM)	inactive: 0	inactive: 0	inactive: 0	inactive: 0	inactive: 0	inactive: 0	inactive: 0	inactive: 0	inactive: 0	inactive: 0	inactive: 0	inactive: 0	inactive: 0	inactive: 0	inactive: 0	inactive: 0	inactive: 0	inactive: 0	inactive: 0	inactive: 0
NC(=O)N1CCC(CC(=O)N2CCC([C@H]3c4ncc(Br)cc4CCc4cc(Cl)cc(Br)c43)CC2)CC1 [Lonafarnib] (2.5 µM)	inactive: 0	inactive: 0	inactive: 0	inactive: 0	inactive: 0	inactive: 0	inactive: 0	inactive: 0	inactive: 0	inactive: 0	inactive: 0	inactive: 0	inactive: 0	inactive: 0	inactive: 0	inactive: 0	inactive: 0	inactive: 0	inactive: 0	inactive: 0
CS(=O)(=O)c1ccc(-c2cnc(N)c(-c3ccc(C(F)(F)F)nc3)c2)cc1 (10 µM)	inactive: 0	inactive: 0	inactive: 0	inactive: 0	inactive: 0	inactive: 0	inactive: 0	inactive: 0	inactive: 0	inactive: 0	inactive: 0	inactive: 0	inactive: 0	inactive: 0	inactive: 0	inactive: 0	inactive: 0	inactive: 0	inactive: 0	inactive: 0
O=Nc1c2[nH]c3ccccc3nc-2c2ccccc12 [IQ-1S (free acid)] (2.5 µM)	inactive: 0	inactive: 0	inactive: 0	inactive: 0	inactive: 0	inactive: 0	inactive: 0	inactive: 0	inactive: 0	inactive: 0	inactive: 0	inactive: 0	inactive: 0	inactive: 0	inactive: 0	inactive: 0	inactive: 0	inactive: 0	inactive: 0	inactive: 0
Cc1cc2sc(NC(=O)Cc3ccccc3)nc2cc1Cl (10 µM)	inactive: 0	inactive: 0	inactive: 0	inactive: 0	inactive: 0	inactive: 0	inactive: 0	inactive: 0	inactive: 0	inactive: 0	inactive: 0	inactive: 0	inactive: 0	inactive: 0	inactive: 0	inactive: 0	inactive: 0	inactive: 0	inactive: 0	inactive: 0
Nc1ncnc2c1c(COc1cccc(Cl)c1)nn2C1CCOCC1 (10 µM)	inactive: 0	inactive: 0	inactive: 0	inactive: 0	inactive: 0	inactive: 0	inactive: 0	inactive: 0	inactive: 0	inactive: 0	inactive: 0	inactive: 0	inactive: 0	inactive: 0	inactive: 0	inactive: 0	inactive: 0	inactive: 0	inactive: 0	inactive: 0
O=C1O[C@H]([C@@H](O)CO)C(O)=C1OP(=O)(O)O [2-Phospho-L-ascorbic acid (trisodium)] (10 µM)	inactive: 0	inactive: 0	inactive: 0	inactive: 0	inactive: 0	inactive: 0	inactive: 0	inactive: 0	inactive: 0	inactive: 0	inactive: 0	inactive: 0	inactive: 0	inactive: 0	inactive: 0	inactive: 0	inactive: 0	inactive: 0	inactive: 0	inactive: 0
O[C@@H]1CO[C@H]2[C@@H]1OC[C@H]2Oc1nc2nc(-c3ccc(-c4ccccc4)cc3)c(Cl)cc2[nH]1 (10 µM)	inactive: 0	inactive: 0	inactive: 0	inactive: 0	inactive: 0	inactive: 0	inactive: 0	inactive: 0	inactive: 0	inactive: 0	inactive: 0	inactive: 0	inactive: 0	inactive: 0	inactive: 0	inactive: 0	inactive: 0	inactive: 0	inactive: 0	inactive: 0
O=[N+]([O-])c1ccc2c(c1)S(=O)(=O)C=C2 [Stattic] (2.5 µM)	inactive: 0	inactive: 0	inactive: 0	inactive: 0	inactive: 0	inactive: 0	inactive: 0	inactive: 0	inactive: 0	inactive: 0	inactive: 0	inactive: 0	inactive: 0	inactive: 0	inactive: 0	inactive: 0	inactive: 0	inactive: 0	inactive: 0	inactive: 0
Cc1ccc(NC(=O)c2ccnc(C(F)(F)F)c2)cc1-c1cc(OCCO)nc(N2CCOCC2)c1 (10 µM)	inactive: 0	inactive: 0	inactive: 0	inactive: 0	inactive: 0	inactive: 0	inactive: 0	inactive: 0	inactive: 0	inactive: 0	inactive: 0	inactive: 0	inactive: 0	inactive: 0	inactive: 0	inactive: 0	inactive: 0	inactive: 0	inactive: 0	inactive: 0
O=C1/C(=C\c2ccc(Cl)cc2)C=C(c2ccccc2)N1c1ccc(O)cc1 (2.5 µM)	inactive: 0	inactive: 0	inactive: 0	inactive: 0	inactive: 0	inactive: 0	inactive: 0	inactive: 0	inactive: 0	inactive: 0	inactive: 0	inactive: 0	inactive: 0	inactive: 0	inactive: 0	inactive: 0	inactive: 0	inactive: 0	inactive: 0	inactive: 0

Record cards, from the list above. Order of values: kinase-Nluc reporter destabilization hit call (BRAF_V600E)	kinase-Nluc reporter destabilization hit call (BTK)	kinase-Nluc reporter destabilization hit call (CAMK2A)	kinase-Nluc reporter destabilization hit call (CAMK2G)	kinase-Nluc reporter destabilization hit call (CDK10)	kinase-Nluc reporter destabilization hit call (CDK2)	kinase-Nluc reporter destabilization hit call (CDK3)	kinase-Nluc reporter destabilization hit call (CDK4)	kinase-Nluc reporter destabilization hit call (CDK5)	kinase-Nluc reporter destabilization hit call (CDK6)	kinase-Nluc reporter destabilization hit call (CDK7)	kinase-Nluc reporter destabilization hit call (CDK9)	kinase-Nluc reporter destabilization hit call (CHEK2)	kinase-Nluc reporter destabilization hit call (CSF1R)	kinase-Nluc reporter destabilization hit call (CSK)	kinase-Nluc reporter destabilization hit call (CSNK1A1)	kinase-Nluc reporter destabilization hit call (CSNK1D)	kinase-Nluc reporter destabilization hit call (DDR1)	kinase-Nluc reporter destabilization hit call (DYRK1B)	kinase-Nluc reporter destabilization hit call (DYRK2)
`CS(=O)(=O)c1ccc(-c2cnc(N)c(-c3ccc(C(F)(F)F)nc3)c2)cc1` (10 µM) in the list: inactive: 0	inactive: 0	inactive: 0	inactive: 0	inactive: 0	inactive: 0	inactive: 0	inactive: 0	inactive: 0	inactive: 0	inactive: 0	inactive: 0	inactive: 0	inactive: 0	inactive: 0	inactive: 0	inactive: 0	inactive: 0	inactive: 0	inactive: 0
`O[C@@H]1CO[C@H]2[C@@H]1OC[C@H]2Oc1nc2nc(-c3ccc(-c4ccccc4)cc3)c(Cl)cc2[nH]1` (10 µM) in the list: inactive: 0	inactive: 0	inactive: 0	inactive: 0	inactive: 0	inactive: 0	inactive: 0	inactive: 0	inactive: 0	inactive: 0	inactive: 0	inactive: 0	inactive: 0	inactive: 0	inactive: 0	inactive: 0	inactive: 0	inactive: 0	inactive: 0	inactive: 0
